We go through 37 compounds from PubChem BioAssay AID2685 (National Center for Advancing Translational Sciences (NCATS), 2010).

SMILES strings stand for the structures. The list shows a part of the results. These are further read-outs of the screen, such as a control signal, another cell line or another target. No call is given for them. Most of these compounds were active or inconclusive in the main read-out, so they are no random draw. The note in brackets gives the kind of curve behind each potency; many fits are weak.

The nature of this assay: qHTS Assay for Lipid Storage Modulators in Drosophila S3 Cells.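 On cell number change: cells counted by Cell Tracker Red CMTPX staining in the red channel.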 As to conditions: BODIPY lipid droplet fluorescence, 18-24 h; for cell number change: measured here: cell count max response, cells fed with added oleic acid. An outline of the steps:
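Drosophila S3 cells loaded with oleic acid (400 uM, as added) and compounds at several concentrations; lipid droplets imaged by 488-nm laser-scanning cytometry, 500–530 nm intensity and object ratio to cell channel. Percent activity normalized to 20 uM Triacsin C.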
(In general: qHTS replaces the single test concentration by a dilution series.)

The mark [1] stands for this setting: measured here: lipid fluorescence (Fed channel) AC50, cells fed with added oleic acid.
The mark [2] stands for this setting: measured here: cell number channel AC50, cells fed with added oleic acid.

For the compound `Cc1cc(C)c2nc3sc(C(=O)N4CCOCC4)c(N)c3cc2c1`, the cell number change worked out at 0.292%. As usually defined, the AC50 is the concentration giving half of the maximal activity seen. Lower therefore signals activity at low concentration. For `COc1cc(CNCCO)ccc1OCC(=O)Nc1ccc(Br)cc1`, the concentration at half-maximal activity (AC50) under setting [1] is 29.1 µM [rising, single point].

Take `CCOc1ccc(NC(=O)CSCC(=O)O)cc1`: the cell number change is -28.8%. Further, the half-maximal activity concentration (AC50) under setting [1] was 1.3 µM [falling, full curve, poor fit]. For `Cc1cccc(N2CCN(C(=O)Cc3ccccc3[N+](=O)[O-])CC2)c1C`, the cell number change is -13.7%. The AC50 under setting [1] was 29.1 µM [falling, single point]. On to `Cc1cccc(/C=N/NC(=O)c2ccncc2)n1`, for which the cell number change is 19.4%. For the same compound, under setting [1], the half-maximal activity concentration (AC50) is 0.0517 µM [falling, full curve, poor fit].

Regarding `CC(C)NCc1c(O)c(Br)cc2oc3c(c12)CCCC3`, the cell number change is -2.67%. In addition, the AC50 under setting [2] was 6.51 µM [falling, single point]. The AC50 under setting [1] was 5.8 µM [falling, single point].

As to `CCc1ccc(/C=C2/SC(=S)N(CCC(=O)NCCCN3CCOCC3)C2=O)cc1`, the cell number change was -1.08%. Same read-out and setting: for `COc1ccccc1NC(=O)Nc1nnc(CC(=O)Nc2ccccc2C)s1` the value was 21.5%.

In the case of `CC(OC(=O)/C=C/c1cccc(Cl)c1)C(=O)NC1CCCCC1C` (stereo not drawn), the cell number change was -41.7%. Further, under setting [2], the AC50 was 8.2 µM [falling, partial curve]. Further, under setting [1], the AC50 was 8.2 µM [falling, partial curve]. For `Cc1ccccc1CNC(=O)C(=O)NCC1CCCN1S(=O)(=O)c1cccs1` (stereo not drawn), the cell number change was -21.5%. The AC50 under setting [1] is 16.4 µM [falling, single point]. As for `O=c1[nH]c2ccc(S(=O)(=O)Nc3ccc(Cl)cc3)cc2o1`, the cell number change was found to be 4.91%. Also, the half-maximal activity concentration (AC50) under setting [1] was 23.1 µM [rising, partial curve].

As for `Cc1c(C(=O)NCC2COc3ccccc3O2)oc2ccc(S(=O)(=O)N3CCOCC3)cc12` (stereo not drawn), the AC50 under setting [2] was 2.59 µM [rising, partial curve, poor fit]. Turning to `CCc1cc(=O)oc2c(C)c(OC(C)C(=O)NC3CC(C)(C)NC(C)(C)C3)ccc12` (stereo not drawn), the cell number change came out at 17.1%. The AC50 under setting [1] is 10.3 µM [rising, partial curve, poor fit].

As to `O=C(NCCc1ccccc1)Nc1ccc(Cl)cc1`, the cell number change is 14.8%. The AC50 under setting [1] was 0.411 µM [falling, partial curve]. In the case of `COc1ccc(NC(=O)COc2coc(CN3CCCc4ccccc43)cc2=O)cc1`, the cell number change was -54.5%. In addition, under setting [2], the half-maximal activity concentration (AC50) is 29.1 µM [falling, single point]. Regarding `COc1cccc(C(=O)N2CCN(S(=O)(=O)Cc3ccccc3)CC2)c1`, the cell number change amounted to 51.1%. Moreover, the AC50 under setting [2] is 6.51 µM [rising, partial curve]. Under setting [1], the concentration at half-maximal activity (AC50) was 0.116 µM [rising, single point]. `CC(=O)C1=C(O)CC(C)(C)CC1=NCCc1nc2ccccc2[nH]1`: the cell number change was -116%. The half-maximal activity concentration (AC50) under setting [2] is 29.1 µM [falling, single point]. Also, under setting [1], the AC50 is 29.1 µM [falling, single point]. As to `O=C(NNC(=S)NC(=O)c1ccccc1)c1ccc([N+](=O)[O-])cc1`, the cell number change was -16.1%. Further, under setting [1], the half-maximal activity concentration (AC50) is 0.13 µM [rising, full curve, poor fit].

On to `O=C(COc1ccc(S(=O)(=O)NCc2ccccc2)cc1)NCc1cccnc1`, for which the cell number change was 5.65%. Besides, under setting [1], the AC50 was 5.8 µM [falling, full curve, poor fit]. Take `Clc1cc(Br)ccc1OCCCn1ccnc1`: the half-maximal activity concentration (AC50) was 0.651 µM [rising, partial curve, poor fit] under setting [2] and 4.11 µM [rising, full curve] under setting [1]. Turning to `CCC(C)N(C(=O)COc1ccccc1C(=O)NCc1ccccc1)C1CCS(=O)(=O)C1` (stereo not drawn), the cell number change was determined as 20.5%. In addition, the AC50 under setting [1] is 6.51 µM [rising, single point]. On to `Cc1ccc(SCC(=O)NN2C(=O)c3ccccc3C2=O)cc1`, for which the cell number change was 21.9%.

Regarding `CC1CC(C)CN(CC(C)(C)NS(=O)(=O)c2ccc(Cl)cc2)C1` (stereo not drawn), the cell number change was 24.9%. For the same compound, under setting [2], the half-maximal activity concentration (AC50) is 4.61 µM [rising, full curve, poor fit]. Also, the concentration at half-maximal activity (AC50) under setting [1] was 18.4 µM [rising, single point]. Consider `Cc1cc(NS(=O)(=O)c2ccc(Nc3nc(-c4ccc(C)c(C)c4)cs3)cc2)no1`, for which the cell number change amounted to 2.22%. In addition, the half-maximal activity concentration (AC50) under setting [1] is 3.66 µM [rising, single point]. Turning to `Cn1c(=O)c2cc(S(=O)(=O)NC(C(=O)NCc3ccccn3)c3ccccc3)ccc2n(C)c1=O` (stereo not drawn), the cell number change stood at 1.96%. Moreover, the AC50 under setting [1] was 4.61 µM [rising, full curve]. `Cc1ccc(Cn2nc(C)c(NC(=O)c3noc4c3CCCCC4)c2C)cc1`: the cell number change was -6.27%. Further, under setting [1], the concentration at half-maximal activity (AC50) is 14.6 µM [falling, partial curve, poor fit].

For `O=C(CSCc1c(F)cccc1Cl)NNC(=S)NC1CCCCC1`, the cell number change amounted to 41.8%. In addition, the AC50 under setting [2] was 29.1 µM [rising, single point]. Besides, the half-maximal activity concentration (AC50) under setting [1] was 23.1 µM [rising, single point]. As to `CCOc1ccccc1N(CC(=O)NCC1CCCO1)C(=O)CCC(=O)Nc1ccccn1` (stereo not drawn), the cell number change came to 18.2%. The AC50 under setting [1] is 10.3 µM [rising, partial curve, poor fit]. On to `O=C(Nc1ccncc1)C1CCN(S(=O)(=O)c2ccccc2)CC1`, for which the cell number change was -15.5%. In addition, the concentration at half-maximal activity (AC50) under setting [1] was 6.51 µM [falling, single point].

On to `O=C1c2ccccc2C(=O)N1c1ccc(S(=O)(=O)N2CCN(c3ccccc3)CC2)cc1`, for which the cell number change is -22.7%. In addition, the half-maximal activity concentration (AC50) under setting [2] was 0.206 µM [falling, full curve, poor fit]. Also, the concentration at half-maximal activity (AC50) under setting [1] was 29.1 µM [falling, single point]. Take `Cc1cccc(OCC(=O)Nc2ccc3c(C)cc(=O)oc3c2)c1`: the cell number change is -4.66%. Also, under setting [1], the concentration at half-maximal activity (AC50) is 0.231 µM [rising, full curve, poor fit]. With `CCOc1ccc(-c2[nH]ncc2-c2ccc(Cl)cc2)c(O)c1`, the cell number change is -69.5%. Besides, under setting [2], the AC50 was 16.4 µM [falling, single point]. For the same compound, under setting [1], the AC50 was 18.4 µM [falling, single point]. On to `CCOc1ccc(NC(=O)c2cc(S(=O)(=O)N3CCOCC3)cn2C)cc1`, for which the cell number change was determined as 15.6%. The AC50 under setting [1] is 0.58 µM [rising, partial curve, poor fit]. Take `C=CCC(=O)NC1CC(C)(C)Cc2c1cnn2-c1ccccc1C` (stereo not drawn): the cell number change worked out at 17.4%.

As for `Cc1ccc(CNC(=O)C2CCC(CNc3c(N4CCOCC4)c(=O)c3=O)CC2)cc1` (stereo not drawn), the cell number change worked out at 1.94%. The same measure, in the same setting: for `CCCCCc1nnc(NC(=O)c2ccc(=O)n(C)n2)s1` the value was 29.6%. For the compound `O=C(C1CCCN(C2CC(=O)N(c3ccc(F)cc3)C2=O)C1)N1CCCC1` (stereo not drawn), the cell number change worked out at 3.47%. Further, the AC50 under setting [1] is 29.1 µM [rising, single point].
